Experimental data from publication PMC8651621.

Key:
Experiment in all cases: two-hybrid; pGADT7 and pGBKT7 constructs co-transformed into yeast AH109; growth on -LT and on -LTH with various concentrations of 3-AT
[1] = biological target: PRR9, yeast two-hybrid fusion (Arabidopsis thaliana)
[2] = biological target: PRR7, yeast two-hybrid fusion (Arabidopsis thaliana)
[3] = biological target: PRR5 truncation containing the PR domain (Arabidopsis thaliana)

binding [1]	binding [2]	binding [3]	Binder
no binding	binds	binds	B-BOX 18 (BBX18), yeast two-hybrid fusion (protein, UniProt Q9SJU5 1-172) MRILCDACESAAAIVFCAADEAALCCSCDEKVHKCNKLASRHLRVGLADPSNAPSCDICENAPAFFYCEIDGSSLCLQCDMVVHVGGKRTHRRFLLLRQRIEFPGDKPNHADQLGLRCQKASSGRGQESNGNGDHDHNMIDLNSNPQRVHEPGSHNQEEGIDVNNANNHEHE
binds			BBX19, yeast two-hybrid fusion (protein, UniProt C0SVM5 1-183) MRILCDACENAAAIIFCAADEAALCRPCDEKVHMCNKLASRHVRVGLAEPSNAPCCDICENAPAFFYCEIDGSSLCLQCDMVVHVGGKRTHGRFLLLRQRIEFPGDKPKENNTRDNLQNQRVSTNGNGEANGKIDDEMIDLNANPQRVHEPSSNNNGIDVNNENNHEPAGLVPVGPFKRESEK

These are yes or no findings as the source states them, for the method shown. Binding calls can cover weak binding; strength is not graded here. Sequences can lack the tags named with a protein.
